Experimental findings from patent publication US8759300 are described below.

By UniProt entry, the sequences of proteins in these tests, tags left out. Where a name states a change or a piece, a line headed by the entry shows the natural chain unless it says otherwise. Chains listed by the source or under a name are the forms on record and can include a tag or linker.
UniProt P09038: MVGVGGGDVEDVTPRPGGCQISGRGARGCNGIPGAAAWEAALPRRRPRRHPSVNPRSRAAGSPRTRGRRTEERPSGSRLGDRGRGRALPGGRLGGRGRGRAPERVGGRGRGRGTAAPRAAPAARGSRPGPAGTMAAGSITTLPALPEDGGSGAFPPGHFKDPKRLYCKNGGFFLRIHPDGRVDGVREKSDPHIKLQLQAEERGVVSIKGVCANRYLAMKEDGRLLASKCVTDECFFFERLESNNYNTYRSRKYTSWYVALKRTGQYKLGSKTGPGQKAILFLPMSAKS
FNIII1-7 (P02751, form named): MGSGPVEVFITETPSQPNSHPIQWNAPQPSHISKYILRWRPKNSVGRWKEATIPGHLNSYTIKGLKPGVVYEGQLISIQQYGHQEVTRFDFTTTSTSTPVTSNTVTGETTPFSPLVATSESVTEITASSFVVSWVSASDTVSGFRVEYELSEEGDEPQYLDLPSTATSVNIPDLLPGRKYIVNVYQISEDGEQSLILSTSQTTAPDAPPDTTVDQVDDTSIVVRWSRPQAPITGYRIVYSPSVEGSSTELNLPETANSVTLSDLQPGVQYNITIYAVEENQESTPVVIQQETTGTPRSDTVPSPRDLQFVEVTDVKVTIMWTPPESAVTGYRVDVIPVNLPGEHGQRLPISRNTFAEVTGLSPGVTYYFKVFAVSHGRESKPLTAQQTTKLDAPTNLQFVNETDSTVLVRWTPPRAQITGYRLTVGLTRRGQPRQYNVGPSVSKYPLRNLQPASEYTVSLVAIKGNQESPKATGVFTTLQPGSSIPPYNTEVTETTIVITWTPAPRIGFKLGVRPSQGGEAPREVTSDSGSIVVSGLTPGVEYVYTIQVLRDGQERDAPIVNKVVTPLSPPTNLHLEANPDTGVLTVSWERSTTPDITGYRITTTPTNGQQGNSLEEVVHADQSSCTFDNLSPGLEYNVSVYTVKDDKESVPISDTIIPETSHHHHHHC
FNIII1 (P02751, form named): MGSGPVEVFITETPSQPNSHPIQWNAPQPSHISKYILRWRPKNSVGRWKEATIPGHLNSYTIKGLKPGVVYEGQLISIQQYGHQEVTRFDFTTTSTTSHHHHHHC

No constants are given. Whether binding was seen depends on the method and setting. Some entries that bind do so weakly or less than the wild type.

The target in this assay is basic fibroblast growth factor (bFGF, FGF-2) (human) (UniProt P09038). Kind of assay: method not restated in the sentence.

As for FNIII1-7 (from UniProt P02751 610-1266), the binding entry was “binds”.

In the case of FNIII1 (from UniProt P02751 610-702), the binding result is given as “binds”.
